# PubChem BioAssay AID652243, Drosophila RNAi Screening Center – 2013
# Aim: 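Fly regulators of androgen-dependent reporter output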 (primary screen)
# Cell system: Drosophila S2R+ cells
# Reagents: long dsRNA against Drosophila genes
# Time to read-out: 72 h (48 h, then 24 h hormone)
# Conditions: synthetic androgen R1881 at 10 nM for 24 h
# Measured: 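Firefly light from an androgen-responsive reporter and Renilla control light per well, raw and unnormalised, for each of two replicates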
# Reading the numbers: firefly reporter light: higher = more light from androgen-responsive reporter; Renilla control light: higher = more constitutive control signal (cell number, transfection)
# Active means: 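Across duplicate plates, a knock-down whose log firefly/Renilla ratio shifted a set fold down or up from the GFP/LacZ control mean was a hit; the downward cut appears as both 1.5 and 3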
# Meaning of the calls: active = hit: reporter lowered or raised; inactive = no hit
# The deposit covers about 24,000 reagents; below is a random part of those with a known target gene and a result. Over the whole deposit, 246 (1%) were called active. 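Plates not normalised; calls are printed but the firefly/Renilla ratio behind them is not deposited; fold cut for lowering reported inconsistently.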 Raw values vary from plate to plate and are shown uncorrected. Reagent sequences are not shown. Not stated in the record: the amount of reagent.
gene,dsRNA,"firefly reporter light, replicate 1","firefly reporter light, replicate 2","Renilla control light, replicate 1","Renilla control light, replicate 2",Call
Keap1,DRSC15528,1.01e5,99644,8.13e5,7.79e5,inactive
Keap1,DRSC29209,5.79e5,6.47e5,8.83e5,7.81e5,inactive
mRpS31,DRSC10556,96847,53807,9.55e5,5.07e5,inactive
CG5280,DRSC10498,3.77e5,2.51e5,4.67e6,3.37e6,inactive
CG5280,DRSC22835,4.24e5,1.04e6,6.28e5,9.96e5,inactive
CG7755,DRSC07040,1.26e5,1.10e5,2.52e6,2.52e6,inactive
Lsm11,DRSC06238,2.54e5,2.01e5,1.61e6,1.44e6,inactive
EndoB,DRSC07345,50228,1.11e5,1.03e6,1.31e6,inactive
CG6179,DRSC19973,1.04e6,9.98e5,3.70e6,3.16e6,inactive
GstT1,DRSC06243,4.91e5,2.61e5,2.58e6,2.29e6,inactive
mtt,DRSC05106,78546,1.34e5,4.82e5,5.18e5,inactive
mtt,DRSC05107,80812,1.26e5,2.05e5,3.84e5,inactive
mtt,DRSC06753,4.27e5,2.85e5,2.68e6,1.90e6,inactive
mtt,DRSC07235,2.40e5,3.03e5,2.08e6,2.16e6,inactive
RpL15,DRSC20963,1.37e5,1.17e5,3.65e5,2.26e5,inactive
Jon65Ai,DRSC09731,2.84e5,2.51e5,3.46e6,3.12e6,inactive
Jon65Ai,DRSC24837,5.21e5,4.83e5,5.31e5,6.18e5,inactive
Cpr76Ba,DRSC11060,87790,49232,1.59e6,1.42e6,inactive
Cpr76Ba,DRSC27858,7.02e5,3.16e5,3.03e6,1.34e6,inactive
Ssdp,DRSC16211,33516,37172,4.87e5,5.27e5,inactive
Ssdp,DRSC27526,2.53e5,2.19e5,4.00e5,6.22e5,inactive
Pglym78,DRSC16787,1.35e5,81718,7.91e5,4.34e5,inactive
Pglym78,DRSC24626,3.03e5,3.25e5,3.60e5,3.87e5,inactive
Slc25A46a,DRSC20125,1.12e5,90221,9.01e5,8.74e5,inactive
ms(2)34Fe,DRSC01905,1.41e5,1.63e5,1.95e6,1.66e6,inactive
CG9503,DRSC20186,3.17e5,4.27e5,3.90e6,4.64e6,inactive
CG9503,DRSC21766,6.90e5,6.16e5,1.65e6,1.61e6,inactive
mms4,DRSC06249,2.15e5,1.98e5,1.60e6,1.47e6,inactive
CG7692,DRSC10902,2.22e5,2.31e5,1.80e6,1.49e6,inactive
CG7692,DRSC24040,9.44e5,8.71e5,1.09e6,1.12e6,inactive
CIA30,DRSC16266,1.08e5,1.48e5,1.03e6,7.25e5,inactive
CG14518,DRSC14870,2.42e5,2.08e5,2.91e6,3.02e6,inactive
CG14518,DRSC27614,2.72e5,2.61e5,4.89e5,9.18e5,inactive
Ask1,DRSC16789,3.32e5,3.07e5,3.20e6,3.95e6,inactive
Ask1,DRSC21697,6.49e5,5.30e5,2.15e6,1.44e6,inactive
Ask1,DRSC36689,,,,,inactive
Ask1,DRSC36690,,,,,inactive
SCAP,DRSC04869,2.92e5,1.94e5,2.47e6,1.85e6,inactive
SCAP,DRSC04907,3.57e5,2.42e5,1.78e6,1.10e6,inactive
CG31639,DRSC00910,2.18e5,1.84e5,7.37e5,5.04e5,inactive
CG31639,DRSC28271,5.52e5,8.16e5,1.21e6,1.64e6,inactive
